Experimental data published in patent publication US4447439A, “2-Cyclic amino-2-(1,2-benzisoxazol-3-yl)acetic acid ester derivatives, process for the preparation thereof and composition containing the same” (priority 1981, dated 1984).
Counter-ions that a name gives are not always drawn.

Test: Safety index (ED50 of mydriatic activity / ID50 of Anti-SGM)
Design: species or system male Wistar strain rats
Conditions: rat, in vivo, po; ED50 of mydriatic activity divided by ID50 of Anti-SGM
Description: This effect was examined using male Wistar strain rats, weighing about 250 g, with chronically implanted strain gauge force transducer as mentioned in the experiment (1). The rats were usually allowed to stand for 3-5 days for recovery from the surgery and fasted for 18 hours before experiment. Then, spontaneous gastric motility in conscious rats were recorded and the sum of amplitude of each contraction was calculated every 15 minutes. Inhibitory effect of test compound by oral administration was expressed as a percent inhibition of initial spontaneous motility. ID50 value, i.e., the dose required for 50% inhibition of spontaneous motility, was determined from regression line calculated by the maximum percent inhibition at each dose level.
*This index is determined by dividing ED50 of mydriatic activity by […]

Compound `CN1[C@@H]2CC[C@H]1C[C@@H](OC(=O)C(CO)c1ccccc1)C2` (stereo partly shown) [Atropine sulfate, atropine sulfate, reference compound] has a selectivity ratio of 2.
